Earlier results as cited in patent publication US6602516B1, “Antibiotic/medicated gutta percha point” (priority 2000, dated 2003).
For at least one compound, name, drawing or mass did not settle the structure.

System: anaerobic gram negative rods and Streptococcus spp.
Details: cited from earlier work

For `CN(C)[C@@H]1C(O)=C(C(N)=O)C(=O)[C@@]2(O)C(O)=C3C(=O)c4c(O)cccc4[C@@](C)(O)[C@H]3C[C@@H]12` [tetracycline], the overall resistant rate is given as 23%.
